T1: Flag-BALF2 expressed in Rta-reactivated TW01-EBV cells (Epstein-Barr virus (B95-8 strain)) (UniProt P03227)
T1 sequence: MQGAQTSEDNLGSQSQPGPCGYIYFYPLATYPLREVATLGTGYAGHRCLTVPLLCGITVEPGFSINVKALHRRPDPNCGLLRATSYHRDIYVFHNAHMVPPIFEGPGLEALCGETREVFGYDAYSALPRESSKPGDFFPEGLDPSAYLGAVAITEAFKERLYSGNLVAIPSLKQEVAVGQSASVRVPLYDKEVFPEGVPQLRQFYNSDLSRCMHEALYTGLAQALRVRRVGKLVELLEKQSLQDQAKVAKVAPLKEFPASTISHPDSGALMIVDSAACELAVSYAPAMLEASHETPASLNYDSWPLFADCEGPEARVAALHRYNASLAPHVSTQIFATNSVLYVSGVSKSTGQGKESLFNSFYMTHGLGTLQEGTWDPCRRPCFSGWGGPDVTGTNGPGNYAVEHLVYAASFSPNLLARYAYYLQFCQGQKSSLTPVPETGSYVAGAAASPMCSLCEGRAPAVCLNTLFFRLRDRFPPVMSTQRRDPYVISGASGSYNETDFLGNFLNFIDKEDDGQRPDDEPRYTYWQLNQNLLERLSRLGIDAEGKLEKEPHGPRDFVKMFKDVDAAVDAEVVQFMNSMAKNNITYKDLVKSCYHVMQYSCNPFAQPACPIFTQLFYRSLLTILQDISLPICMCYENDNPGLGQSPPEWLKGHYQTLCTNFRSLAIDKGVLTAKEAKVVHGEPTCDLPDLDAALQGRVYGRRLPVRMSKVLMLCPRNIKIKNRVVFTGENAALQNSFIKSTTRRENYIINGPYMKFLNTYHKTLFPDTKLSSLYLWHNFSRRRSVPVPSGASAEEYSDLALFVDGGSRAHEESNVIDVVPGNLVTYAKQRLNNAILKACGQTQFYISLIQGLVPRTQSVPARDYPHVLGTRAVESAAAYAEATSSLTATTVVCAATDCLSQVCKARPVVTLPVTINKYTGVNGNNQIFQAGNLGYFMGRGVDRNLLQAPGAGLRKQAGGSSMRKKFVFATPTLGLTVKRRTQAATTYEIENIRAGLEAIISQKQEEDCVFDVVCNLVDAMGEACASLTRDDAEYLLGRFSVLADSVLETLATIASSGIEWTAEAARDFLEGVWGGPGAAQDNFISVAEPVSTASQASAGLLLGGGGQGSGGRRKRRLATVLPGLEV

Sequences of proteins named here, by UniProt entry; tags and fusion partners are left off.
UniProt P51149: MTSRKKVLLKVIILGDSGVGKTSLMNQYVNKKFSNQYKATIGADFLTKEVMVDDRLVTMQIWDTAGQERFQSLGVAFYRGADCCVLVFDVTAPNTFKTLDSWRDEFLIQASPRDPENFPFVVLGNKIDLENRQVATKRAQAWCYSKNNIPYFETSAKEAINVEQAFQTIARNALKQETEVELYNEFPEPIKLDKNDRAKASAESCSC
UniProt Q9NP72: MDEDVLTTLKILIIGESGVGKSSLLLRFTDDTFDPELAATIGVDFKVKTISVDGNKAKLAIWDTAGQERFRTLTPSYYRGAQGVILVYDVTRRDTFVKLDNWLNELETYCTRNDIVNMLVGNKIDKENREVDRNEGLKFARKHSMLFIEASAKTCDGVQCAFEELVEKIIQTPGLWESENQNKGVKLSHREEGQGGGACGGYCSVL
UniProt Q9UL25: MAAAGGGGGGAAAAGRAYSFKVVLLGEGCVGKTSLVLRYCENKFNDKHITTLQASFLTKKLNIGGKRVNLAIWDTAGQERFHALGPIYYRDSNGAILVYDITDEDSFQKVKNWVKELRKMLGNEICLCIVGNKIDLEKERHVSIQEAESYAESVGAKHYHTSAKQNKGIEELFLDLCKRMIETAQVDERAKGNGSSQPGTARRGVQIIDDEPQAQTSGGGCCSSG

B1: Rab13, endogenous in TW01-EBV cells (protein, UniProt P51153 1-203)
chain: MAKAYDHLFKLLLIGDSGVGKTCLIIRFAEDNFNNTYISTIGIDFKIRTVDIEGKKIKLQVWDTAGQERFKTITTAYYRGAMGIILVYDITDEKSFENIQNWMKSIKENASAGVERLLLGNKCDMEAKRKVQKEQADKLAREHGIRFFETSAKSSMNVDEAFSSLARDILLKSGGRRSGNGNKPPSTDLKTCDKKNTNKCSLG

Our source for the binding values is PMC9927466.

Results are given in words; binding and its absence hold for the method and conditions named. In cells and extracts the contact can be indirect. Here binding means that the protein was enriched with, or labelled near, the bait; the list need not be complete. Sequences can lack the tags named with a protein.

The first experiment has as its target T1, Flag-BALF2 expressed in Rta-reactivated TW01-EBV cells (Epstein-Barr virus (B95-8 strain)). Put plainly: affinity purification with mass spectrometry.
Regarding “BBLF2/BBLF3 (viral primase-associated factor)”, the binding result was “binds”.
The same measure, in the same setting: the result for BXRF1 reads “binds”; that for LF3, “binds”; that for “Rab7A, endogenous in TW01-EBV cells (from UniProt P51149 1-207)”, “binds”.
Still for that read-out and setting: the result for “Rab18, endogenous in TW01-EBV cells (from UniProt Q9NP72 1-206)” reads “binds”.
Still for that read-out and setting: the result for “Rab21, endogenous in TW01-EBV cells (from UniProt Q9UL25 1-225)” reads “binds”.

A further experiment has the same target. Description: affinity purification with mass spectrometry. The source holds these as a separate data set.
On to B1, for which the binding result is reported as “binds”.
